# Results: the supplement of paper PMC8728848
# This is one part of the list.
# B1: SP15308B-bot-339-22-339 (Bacteroides ovatus) (protein)
# chain: NEWEDEQYEQYVSFKAPIASGSDGVTTIYVRYKDNGKVTYQLPIIVSGSTVNSQDRDIHIAVDKDTLKTLNIERFSLYRPELWYTEMEEDKYEFPETVHIPAGSCVELLNIDFNLQDIDMLEKWVLPLTIVDDGSYAYQSHPRKNYAKALLKVVPFNNYSGSYTASSMKVYTYINGKPDTNARTTDKRTGYVVDNNSIFFYAGLINEDMDKDMRKKYKINVHFKEDGTLDMKQDDPSNEMEFELIGTPTYSSTSVMDATRPYLERRYVQIMFEYDFQDFTYGGSGTEVIPIKYRVAGSMTLLRNINTQIPDEDQQIEW
# Assays:
# Assay in all cases: glycan array binding signal (z-score within array); higher = stronger binding
# Details in all cases: glycan notation: IUPAC condensed, linker removed
# [1] = target: Neu5Ac(a2-6)Gal(b1-4)GlcNAc(b1-3)Gal(b1-4)GlcNAc(b1-3)Gal(b1-4)GlcNAc
# Procedure, shortened: (§1)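 Negative Z-scores can be read as non-binding. The Z-score is calculated within each array and then averaged across arrays of one protein sequence at different concentrations or buffers and across linkers. Arrays, 3228 in all, were curated from the Consortium for Functional Glycomics database and kept only where the protein sequence was available.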
# [2] = target: Neu5Ac(a2-6)Gal(b1-4)GlcNAc(b1-3)Gal(b1-4)GlcNAc(b1-3)Gal(b1-4)GlcNAc(b1-2)Man(a1-3)[Neu5Ac(a2-6)Gal(b1-4)GlcNAc(b1-3)Gal(b1-4)GlcNAc(b1-3)Gal(b1-4)GlcNAc(b1-2)Man(a1-6)]GalNAc
# Procedure, shortened: as §1
# [3] = target: Neu5Ac(a2-6)Gal(b1-4)GlcNAc(b1-3)Gal(b1-4)GlcNAc(b1-3)GalNAc
# Procedure, shortened: as §1
# [4] = target: Neu5Ac(a2-6)Gal(b1-4)GlcNAc(b1-3)Gal(b1-4)GlcNAc(b1-3)[Neu5Ac(a2-6)Gal(b1-4)GlcNAc(b1-3)Gal(b1-4)GlcNAc(b1-6)]GalNAc
# Procedure, shortened: as §1
# [5] = target: Neu5Ac(a2-6)Gal(b1-4)GlcNAc(b1-3)Gal(b1-4)GlcNAc(b1-6)[Gal(b1-3)]GalNAc
# Procedure, shortened: as §1
# [6] = target: Neu5Ac(a2-6)Gal(b1-4)GlcNAc(b1-3)Gal(b1-4)[Fuc(a1-3)]GlcNAc(b1-3)Gal(b1-4)[Fuc(a1-3)]GlcNAc
# Procedure, shortened: as §1
# [7] = target: Neu5Ac(a2-6)Gal(b1-4)GlcNAc(b1-3)GalNAc
# Procedure, shortened: as §1
# [8] = target: Neu5Ac(a2-6)Gal(b1-4)GlcNAc(b1-3)[Neu5Ac(a2-6)Gal(b1-4)GlcNAc(b1-6)]GalNAc
# Procedure, shortened: as §1
# [9] = target: Neu5Ac(a2-6)Gal(b1-4)GlcNAc(b1-6)GalNAc
# Procedure, shortened: as §1
# [10] = target: Neu5Ac(a2-6)Gal(b1-4)GlcNAc(b1-6)[Gal(b1-3)GlcNAc(b1-3)]Gal(b1-4)Glc
# Procedure, shortened: as §1
# [11] = target: Neu5Ac(a2-6)Gal(b1-4)GlcNAc(b1-6)[Gal(b1-3)]GalNAc
# Procedure, shortened: as §1
# [12] = target: Neu5Ac(a2-6)Gal(b1-4)GlcNAc6S
# Procedure, shortened: as §1
# Neu5Ac(a2-6)GalNAc = target: Neu5Ac(a2-6)GalNAc
# Procedure, shortened: as §1
# [13] = target: Neu5Ac(a2-6)GalNAc(b1-4)GlcNAc
# Procedure, shortened: as §1
# [14] = target: Neu5Ac(a2-6)GalNAc(b1-4)GlcNAc6S
# Procedure, shortened: as §1
# [15] = target: Neu5Ac(a2-6)GlcNAc(b1-4)GlcNAc
# Procedure, shortened: as §1
# [16] = target: Neu5Ac(a2-6)GlcNAc(b1-4)GlcNAc(b1-4)GlcNAc
# Procedure, shortened: as §1
# Neu5Ac(a2-8)Neu5Ac = target: Neu5Ac(a2-8)Neu5Ac
# Procedure, shortened: as §1
# [17] = target: Neu5Ac(a2-8)Neu5Ac(a2-3)Gal(b1-3)GalNAc(b1-4)[Neu5Ac(a2-3)]Gal(b1-4)Glc
# Procedure, shortened: as §1
# [18] = target: Neu5Ac(a2-8)Neu5Ac(a2-3)Gal(b1-3)GalNAc(b1-4)[Neu5Ac(a2-8)Neu5Ac(a2-3)]Gal(b1-4)Glc
# Procedure, shortened: as §1
# [19] = target: Neu5Ac(a2-8)Neu5Ac(a2-3)Gal(b1-4)Glc
# Procedure, shortened: as §1
# [20] = target: Neu5Ac(a2-8)Neu5Ac(a2-3)Gal(b1-4)GlcNAc
# Procedure, shortened: as §1
# [21] = target: Neu5Ac(a2-8)Neu5Ac(a2-3)[Gal(b1-3)GalNAc(b1-4)]Gal(b1-4)Glc
# Procedure, shortened: as §1
# [22] = target: Neu5Ac(a2-8)Neu5Ac(a2-3)[GalNAc(b1-4)]Gal(b1-4)Glc
# Procedure, shortened: as §1
# [23] = target: Neu5Ac(a2-8)Neu5Ac(a2-8)Neu5Ac
# Procedure, shortened: as §1
# [24] = target: Neu5Ac(a2-8)Neu5Ac(a2-8)Neu5Ac(a2-3)Gal(b1-4)Glc
# Procedure, shortened: as §1
# [25] = target: Neu5Ac(a2-8)Neu5Ac(a2-8)Neu5Ac(a2-3)[Gal(b1-3)GalNAc(b1-4)]Gal(b1-4)Glc
# Procedure, shortened: as §1
# [26] = target: Neu5Ac(a2-8)Neu5Ac(a2-8)Neu5Ac(a2-3)[GalNAc(b1-4)]Gal(b1-4)Glc
# Procedure, shortened: as §1
# [27] = target: Neu5Ac(a2-8)Neu5Ac(a2-8)Neu5Ac(a2-8)Neu5Ac(a2-3)[GalNAc(b1-4)]Gal(b1-4)Glc
# Procedure, shortened: as §1
# [28] = target: Neu5Ac(a2-8)Neu5Gc(a2-3)Gal(b1-4)GlcNAc
# Procedure, shortened: as §1
# [29] = target: Neu5Ac(b2-6)Gal(b1-4)GlcNAc
# Procedure, shortened: as §1
# Neu5Ac(b2-6)GalNAc = target: Neu5Ac(b2-6)GalNAc
# Procedure, shortened: as §1
# [30] = target: Neu5Ac9Ac(a2-3)Gal(b1-3)GlcNAc
# Procedure, shortened: as §1
# [31] = target: Neu5Ac9Ac(a2-3)Gal(b1-4)GlcNAc
# Procedure, shortened: as §1
# [32] = target: Neu5Ac9Ac(a2-6)Gal(b1-4)GlcNAc
# Procedure, shortened: as §1
# [33] = target: Neu5Gc(a2-3)Gal(b1-3)GlcNAc
# Procedure, shortened: as §1
# [34] = target: Neu5Gc(a2-3)Gal(b1-3)[Fuc(a1-4)]GlcNAc
# Procedure, shortened: as §1
# Neu5Gc(a2-3)Gal(b1-4)Glc = target: Neu5Gc(a2-3)Gal(b1-4)Glc
# Procedure, shortened: as §1
# [35] = target: Neu5Gc(a2-3)Gal(b1-4)GlcNAc
# Procedure, shortened: as §1
# [36] = target: Neu5Gc(a2-3)Gal(b1-4)GlcNAc(b1-3)Gal(b1-4)GlcNAc(b1-2)Man(a1-3)[Neu5Gc(a2-3)Gal(b1-4)GlcNAc(b1-3)Gal(b1-4)GlcNAc(b1-2)Man(a1-6)]Man(b1-4)GlcNAc(b1-4)GlcNAc
# Procedure, shortened: as §1
# [37] = target: Neu5Gc(a2-3)Gal(b1-4)[Fuc(a1-3)]GlcNAc
# Procedure, shortened: as §1
# [38] = target: Neu5Gc(a2-6)Gal(b1-4)GlcNAc
# Procedure, shortened: as §1
# Neu5Gc(a2-6)GalNAc = target: Neu5Gc(a2-6)GalNAc
# Procedure, shortened: as §1
# [39] = target: Neu5Gc(a2-8)Neu5Ac(a2-3)Gal(b1-4)GlcNAc
# Procedure, shortened: as §1
# [40] = target: Neu5Gc(a2-8)Neu5Gc(a2-3)Gal(b1-4)GlcNAc
# Procedure, shortened: as §1
binder,measurement,setting,value
B1,glycan array binding signal (z-score),[1],-0.621
same,glycan array binding signal (z-score),[2],0.664
same,glycan array binding signal (z-score),[3],-0.263
same,glycan array binding signal (z-score),[4],-0.302
same,glycan array binding signal (z-score),[5],-0.651
same,glycan array binding signal (z-score),[6],-0.091
same,glycan array binding signal (z-score),[7],-0.409
same,glycan array binding signal (z-score),[8],-0.486
same,glycan array binding signal (z-score),[9],0.549
same,glycan array binding signal (z-score),[10],-0.278
same,glycan array binding signal (z-score),[11],-0.51
same,glycan array binding signal (z-score),[12],0.042
same,glycan array binding signal (z-score),Neu5Ac(a2-6)GalNAc,0.169
same,glycan array binding signal (z-score),[13],-0.157
same,glycan array binding signal (z-score),[14],-0.231
same,glycan array binding signal (z-score),[15],-0.29
same,glycan array binding signal (z-score),[16],-0.306
same,glycan array binding signal (z-score),Neu5Ac(a2-8)Neu5Ac,-0.04
same,glycan array binding signal (z-score),[17],-0.298
same,glycan array binding signal (z-score),[18],0.089
same,glycan array binding signal (z-score),[19],0.028
same,glycan array binding signal (z-score),[20],-0.044
same,glycan array binding signal (z-score),[21],-0.005
same,glycan array binding signal (z-score),[22],0.181
same,glycan array binding signal (z-score),[23],0.118
same,glycan array binding signal (z-score),[24],-0.189
same,glycan array binding signal (z-score),[25],-0.175
same,glycan array binding signal (z-score),[26],-0.473
same,glycan array binding signal (z-score),[27],-0.248
same,glycan array binding signal (z-score),[28],-0.498
same,glycan array binding signal (z-score),[29],-0.378
same,glycan array binding signal (z-score),Neu5Ac(b2-6)GalNAc,-0.627
same,glycan array binding signal (z-score),[30],-0.339
same,glycan array binding signal (z-score),[31],-0.54
same,glycan array binding signal (z-score),[32],-0.663
same,glycan array binding signal (z-score),[33],-0.652
same,glycan array binding signal (z-score),[34],-0.334
same,glycan array binding signal (z-score),Neu5Gc(a2-3)Gal(b1-4)Glc,-0.15
same,glycan array binding signal (z-score),[35],0.215
same,glycan array binding signal (z-score),[36],0.213
same,glycan array binding signal (z-score),[37],-0.265
same,glycan array binding signal (z-score),[38],-0.205
same,glycan array binding signal (z-score),Neu5Gc(a2-6)GalNAc,-0.199
same,glycan array binding signal (z-score),[39],-0.481
same,glycan array binding signal (z-score),[40],-0.454

# Reformatted bar-delimited: entries from further up
binder | measurement | setting | value
B1 | glycan array binding signal (z-score) | [33] | -0.652
same | glycan array binding signal (z-score) | [34] | -0.334
